# The list shows a part of the results. The main result of the screen is listed elsewhere. These columns were measured beside it and carry no call. Compounds called inactive in the main read-out are mostly missing here. Potencies come from curve fits of mixed quality, noted in brackets.
# Experiment: IkB Signaling
# Settings: ABC-DLBCL IkBa-CBG/CBR dual luciferase ratio (green luciferase fused to IkBa over red control in OCI-Ly3 lymphoma cells), 4 h; measured here: control luc red channel unless noted
# Procedure, shortened: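 Luminescence ratio of IκBα-fused green versus native red beetle luciferase in OCI-Ly3 cells, 4 h post-doxycycline with compound; red signal alone, scaled from basal (0%) to zero light (-100%), flagged nonspecific or cytotoxic effects.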
row,Structure (SMILES),AC50
1,CC(C)(C)N1C(=O)Cc2c1nc(N)c1c(N)nc(N3CCCCC3CO)c(C#N)c21 (stereo not given),"15.8 µM [rising, partial curve] [measured here: IkB-luc green channel]"
2,Cc1ccc(NC(=O)C(C)n2nnc3sc4c(c3c2=O)CCCC4)cc1Cl (stereo not given),"12.6 µM [falling, partial curve]"
3,Oc1ccc(NCc2ccccc2OCc2ccccc2F)cc1,"15.8 µM [falling, partial curve]"
4,CC(=O)c1ccc(NC(=O)CCCSc2nc(-c3ccco3)cc(C(F)(F)F)n2)cc1,"25.1 µM [falling, single point]"
5,CCOC(=O)c1cccc(Nc2cc(-c3ccccc3)ncn2)c1,"20 µM [falling, single point]"
6,Cc1cccc(N(CC(=O)NCc2ccccc2)C(=O)Cn2nnc(-c3ccc(C)o3)n2)c1,"31.6 µM [falling, partial curve]"
7,CCOC(=O)c1c(C)[nH]c(CCC(=O)NCc2ccccc2Cl)c1C,"25.1 µM [falling, single point]"
8,CC(=O)c1ccc(Nc2cc(C)nc3nc(Cc4ccc(Cl)cc4)nn23)cc1,"31.6 µM [falling, partial curve, poor fit]"
9,CCc1ccc2oc(C(=O)Nc3cc(C)ccc3C)cc(=O)c2c1,"0.398 µM [falling, partial curve]"
10,CC(C)c1nn2c(=O)cc(COC(=O)c3ccccc3NC(=O)C3CCCCC3)nc2s1,"39.8 µM [falling, single point]"
11,CC1Cc2ccccc2N1C(=O)CSc1nnc(-c2ccccc2Cl)o1 (stereo not given),"3.16 µM [falling, single point]"
12,CC1CCCCN1S(=O)(=O)c1ccc(C(=O)Nc2nnc(-c3cccs3)o2)cc1 (stereo not given),"20 µM [falling, partial curve]"
13,Nc1nc(-c2nc3ccccc3[nH]2)cs1,"12.6 µM [falling, partial curve]"
14,Cc1ccc(NC(=O)Cn2ccn(-c3ccccc3)c(=O)c2=O)cc1,"20 µM [falling, single point]"
15,CCOc1ccc(C2NC(=O)c3c(COC)cc(C)nc3N2Cc2ccccc2)cc1OC (stereo not given),"0.316 µM [rising, full curve, poor fit]"
16,Cc1ccc(C)c(N2CCN(C(=O)c3ccc4c(c3)N(Cc3ccc(F)cc3)C(=O)c3ccccc3S4=O)CC2)c1 (stereo not given),"3.98 µM [falling, partial curve]"
17,CC1CCC(Nc2nc3c(-c4cccc(C(F)(F)F)c4)nnn3c3ccccc23)CC1 (stereo not given),"20 µM [falling, partial curve]"
18,COc1cc(OC)c(NC(=O)CCc2c(C)nc3cc(-c4ccccc4OC)nn3c2C)cc1Cl,"1 µM [falling, full curve]"
19,COCCOC(=O)c1cc(C(=O)c2cc(F)ccc2O)coc1=N,"10 µM [falling, partial curve]"
20,O=C(Nc1cccc(-c2cn3ccsc3n2)c1)c1ccccc1,"20 µM [falling, single point]"

row,Structure (SMILES),AC50
1,COc1ccccc1-c1noc(CCC(=O)Nc2ccc(C)cc2C)n1,"0.631 µM [falling, full curve]"
2,Cc1cccc(N2CCn3c2nc2c3c(=O)n(CCc3ccccc3)c(=O)n2C)c1,"20 µM [falling, partial curve]"
3,N#CC1=C(N)N(c2cccc(Cl)c2)C2=C(C(=O)CCC2)C1c1cc(CN2CCOCC2)cs1 (stereo not given),"39.8 µM [rising, partial curve, poor fit] [measured here: IkB-luc green channel]"
4,Cc1cccc(N2C(=O)CS(=O)(=O)C23C(=O)N(Cc2c(F)cccc2Cl)c2ccccc23)c1 (stereo not given),"15.8 µM [falling, partial curve]"
5,CSc1cccc(NC(=O)CN2CCN(Cc3ccccc3C)S2(=O)=O)c1,"39.8 µM [falling, single point]"
6,Cc1cc(N)c(-n2cc3c(c2-c2ccc(Br)cc2)c(=O)n(C)c(=O)n3C)cc1C,"15.8 µM [falling, partial curve]"
7,C=CCN(CC=C)S(=O)(=O)c1ccc2nc(NC(=O)C(C)C)sc2c1,"12.6 µM [falling, partial curve]"
8,O=C(O)CCCNc1cc(N2CCN(C3CCCCC3)CC2)c2noc3c2c1C(=O)c1ccccc1-3,"20 µM [falling, partial curve]"
9,O=C(CSc1ncn[nH]1)Nc1nc(-c2ccccc2)ns1,"31.6 µM [falling, single point]"
10,Cc1ccc(-c2cc(-c3cccc(F)c3)n[nH]2)c(O)c1,"25.1 µM [falling, partial curve]"
11,CCOC(=O)CC(=O)CSCC(=O)Nc1ccc(C)cc1,"31.6 µM [falling, single point]"
12,C=Cc1ccc(Cn2c(C)c(CNCCc3ccccc3C)c(C(=O)O)c2C)cc1,"25.1 µM [falling, single point]"
13,O=C(COc1ccc(Cl)cc1)Nc1ccc(C(=O)OCc2cc(=O)n3ccsc3n2)cc1,"12.6 µM [falling, partial curve]"
14,FC(F)(F)Oc1ccc2c(c1)NC(c1ccncc1)=NC(c1cccs1)=N2,"39.8 µM [falling, single point]"
15,Cc1ccc(NC(=O)CCSc2nc(-c3ccco3)cc(C(F)(F)F)n2)cc1F,"12.6 µM [falling, partial curve]"
16,O=C(Nc1nc(-c2ccccc2)cs1)C1CCCCN1S(=O)(=O)c1ccccc1 (stereo not given),"15.8 µM [falling, partial curve]"
17,C=CCc1cccc2cc(C(=O)Nc3ccc(F)cc3)c(=O)oc12,"15.8 µM [falling, partial curve]"
18,COc1ccc2oc(=O)c(C(=O)Nc3ccc(C(=O)O)cc3)cc2c1,"0.794 µM [falling, full curve]"
19,COc1ccc(OCC(=O)Nc2nnc3n2CCS3)cc1,"0.1 µM [falling, full curve, poor fit]"
20,O=C(Nc1ccc(Oc2ccccc2)cc1)c1ccco1,"12.6 µM [falling, single point]"

# A second format for 2 compounds above.
row	Structure (SMILES)	AC50
18	COc1ccc2oc(=O)c(C(=O)Nc3ccc(C(=O)O)cc3)cc2c1	0.794 µM [falling, full curve]
19	COc1ccc(OCC(=O)Nc2nnc3n2CCS3)cc1	0.1 µM [falling, full curve, poor fit]
